## Library screen at single concentrations

Results are given as percent effect. The controls that fix the scale are not given in the record; negative values are as filed. This is an unselected part of the compounds tested.

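Whole-parasite assay of Trypanosoma brucei over 72 hours; the read-out is not stated. Concentration: 30 µM. Higher reads as stronger inhibition (inferred: compounds with an IC50 in retests scored well above the rest). Values scatter widely below zero; nearly all retest evidence comes from the higher of the two concentrations used. About 64,000 compounds were tested under these conditions; 1.5% (about 940) showed 50% or more at least once.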

Compound: O=C(C1CCOCC1)N1CCCC1c1cncc(CN2CCCC2)n1 (stereo not shown)
percent effect: -2.074%

Compound: CC(=O)N1CCCN(C(=O)NCC2(c3cccs3)CCCC2)CC1
percent effect: 13.61%

Compound: O=C(CC1OCCc2ccsc21)NCC1CC1 (stereo not shown)
percent effect: 12.56%

Compound: Cc1noc(C(C)C)c1C(=O)NS(=O)(=O)c1cccnc1
percent effect: 17.26%

Compound: COc1cccc(S(=O)(=O)NC2CNC(=O)C2)c1 (stereo not shown)
percent effect: -35.98%

Compound: CCC(CC)c1cc(CNC(=O)N2CCCC(c3ncc[nH]3)C2)on1 (stereo not shown)
percent effect: -20.04%

Compound: COCC1COCCC12CCN(C(=O)COc1ccccc1)CC2 (stereo not shown)
percent effect: -34.77%

Compound: Cc1nnc(CN(C)CC2CCCN2c2cccnn2)o1 (stereo not shown)
percent effect: -4.706%

Compound: [H][C@]12CC[C@]([H])(CN(C3Cc4ccccc4C3)C1)N(C(=O)N(C)C)C2
percent effect: -10.78%

Compound: CS(=O)(=O)N[C@@H]1CN(Cc2ccccc2)C[C@H]1O
percent effect: 0.5046%

Compound: O=C(C1CC1)N1CC2(CCN(CC3CC3)CC2)c2cc(F)ccc21.O=C(O)C(F)(F)F
percent effect: -15.37%

Compound: CC(O)CN1CC(C)(C)CN(C(=O)CCc2ccccc2)CC1=O (stereo not shown)
percent effect: 0.9679%

Compound: CC(=O)N1CCC2(CCN(Cc3ccc(Cl)c(C(F)(F)F)c3)CC2)C1
percent effect: 29.94%

Compound: CC(C)C(=O)N1CCCC12CCN(C(=O)c1ccno1)C2 (stereo not shown)
percent effect: -3.727%

Compound: CC(=O)Nc1nc2c(s1)C(C)(C)Nc1ccccc1S2
percent effect: -17.63%

Compound: CN(C)C(=O)CN1CCN(c2cc(N3CCCC3CO)ncn2)CC1 (stereo not shown)
percent effect: -29.83%

Compound: CC(C)c1nccn1C(C)C(=O)N1CCN(c2ccccc2Cl)CC1 (stereo not shown)
percent effect: 16.25%

Compound: O=C(NCCc1cccnc1)c1cn(CCN2CCNCC2)nn1
percent effect: -15.41%

Compound: COc1ccc(C[C@H]2CN(C(=O)c3cscn3)CC[C@@H]2OC)cc1
percent effect: 1.6%

Compound: Cc1cc(Br)cnc1N(C)CC1CCOC1 (stereo not shown)
percent effect: -46.25%

Compound: O=C(O)C(F)(F)F.[H][C@@]12CNC(=O)[C@@H](C)[C@]1([H])CN(CCc1ccccc1)C2
percent effect: -1.404%

Compound: O=c1[nH][nH]cc1-c1ccnc(NCCCN2CCOCC2)n1
percent effect: -14.1%

Compound: Cc1nc(N(C)C)nc(NCCc2cnccn2)c1C
percent effect: 6.158%

Compound: CCCN1CCC(CC(=O)NCCc2nc(C)cc(C)n2)CC1
percent effect: -47.92%

Compound: COC(=O)Nc1nc2c(s1)CN(C(=O)NCc1cccs1)CC2
percent effect: -11.59%

Compound: O=C(COc1cccc2c1CCC2=O)NCc1ccccc1Cl
percent effect: 30.97%

Compound: COc1ccccc1-n1c(O)cc(C)c(C#N)c1=O
percent effect: -38.61%

Compound: Cc1ccc(CNCc2nnc3n2CC(C(F)(F)F)CC3)cc1 (stereo not shown)
percent effect: -33.53%

Compound: CCN1CCCC(c2cc(Nc3cnccn3)nc(C)n2)C1 (stereo not shown)
percent effect: 5.814%

Compound: Cc1cnc2c(S(=O)(=O)NC(=O)C(C)OCC3CC3)cccc2c1 (stereo not shown)
percent effect: 17.86%

Compound: CC(NC(=O)CCCc1nc(C(C)(C)C)no1)c1nnc2n1CCC2 (stereo not shown)
percent effect: -12.74%

Compound: Cc1ccc(CNC2(Cc3cc(C(C)(C)O)on3)COC2)o1
percent effect: -3.458%

Compound: O=C(NCC1CCN(Cc2ccsc2)CC1)NC1CC1
percent effect: 31.2%

Compound: Cc1nc(CNCc2cccnc2Oc2ccc(C)c(F)c2F)c[nH]1
percent effect: 12.86%

Compound: Cc1csc(CCCNC(=O)NC2CC(=O)N(C(C)(C)C)C2)n1 (stereo not shown)
percent effect: -13.42%

Compound: CN(Cc1cccnc1)CC1CC12CCN(Cc1nccs1)CC2 (stereo not shown)
percent effect: -58.72%

Compound: Cc1nn(C)c2c(NCCCn3cccn3)nc(C(C)C)nc12
percent effect: -9.582%

Compound: CN(CC(N)=O)S(=O)(=O)c1ccc(F)cc1F
percent effect: -44.97%

Compound: COCC1CC2(CCN(Cc3nc(C)cs3)CC2)CO1 (stereo not shown)
percent effect: 7.019%

Compound: CC(CS(C)(=O)=O)N(C(=O)CCc1ccsc1)C1CC1 (stereo not shown)
percent effect: 5.356%

Compound: O=C1CCSCC(C(=O)N2CCCC2)N1 (stereo not shown)
percent effect: -20.76%

Compound: Cc1nc(C(=O)N2CC[C@@]3(C[C@H](NS(C)(=O)=O)CCO3)C2)cs1
percent effect: -21.87%

Compound: CSc1ccc2cc(CN(C)CCc3cn[nH]c3)c(=O)[nH]c2c1
percent effect: -14.68%

Compound: CC(C)C(O)C1(CNC(=O)Nc2ccc(CN3CCOC3=O)cc2)CC1 (stereo not shown)
percent effect: -15.57%

Some entries from above, unchanged:

For O=C(CC1OCCc2ccsc21)NCC1CC1 (stereo not shown) the result was 12.56%.
For Cc1ccc(CNC2(Cc3cc(C(C)(C)O)on3)COC2)o1 the result was -3.458%.
For COC(=O)Nc1nc2c(s1)CN(C(=O)NCc1cccs1)CC2 the result was -11.59%.
For Cc1csc(CCCNC(=O)NC2CC(=O)N(C(C)(C)C)C2)n1 (stereo not shown) the result was -13.42%.

The values are deposited in ChEMBL (CHEMBL3988442, “University of Dundee, Small-Polar-MMV Screening Library” (2021)).